## Screening data, single-dose tests

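Phenotypic screen: M. tuberculosis growth, cholesterol and DPPC medium, 4 days; the read-out is not stated. Tested at 50 µM. The record gives no direction; compounds that gave an IC50 in retests scored well above the rest, so higher reads as more growth inhibition. Size under these conditions: about 69,000 compounds, about 370 of them at 50% or above in at least one test.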

Each number is a percent effect as filed. The controls that fix the scale are not given in the record; negative values are as filed. Compounds were drawn at random from those tested, without regard to their results. Two or more numbers in one place are separate tests of the same structure; such repeats can differ widely.

Result for CCN(CC)C(CNCc1ccc(OC)c(F)c1)c1ccco1 (stereo not drawn) was -18.87%. With CC(=O)NCCNC(=O)CN1CCOC(Cn2cccn2)C1 (stereo not drawn) the screen gave -14.61%. Result for [H][C@@]12CCN(C(=O)c3ccsc3)C[C@@]1([H])O[C@H](c1noc(C)n1)C2 was -16.78%. O=C(O)c1cnc(-c2cccc3c2CCNC3)c(Cl)c1 gave -7.574%. Result for CCOCCn1nc(C)cc1C(=O)N1CC[C@](O)(CC)[C@H](O)C1 was -6.574% & -8.035%. CS(=O)(=O)c1ccc(O[C@H]2COCCN(Cc3ccncc3)C2)cc1 read 11.39%. With Cn1cc(C[C@H]2[C@H](N3CCOCC3)CCN2C2CCOCC2)cn1.O=C(O)C(F)(F)F.O=C(O)C(F)(F)F the screen gave -12.93%.

Result for O=C(c1ccc(Cn2cc(Br)cn2)cc1)N1CCOCC1 was 13.83%. With CN(C)C(C(=O)N1CCCC1)c1ccccc1F (stereo not drawn) the screen gave -3.088%. Result for CCN(C(=O)NCc1ncc(C)c(OC)c1C)C(C)c1cccnc1 (stereo not drawn) was 23.41%. CNC(=O)CCCNc1cc(C)nc2cc(C)nn12 gave -1.246%. Result for CCOc1c(F)cccc1C(=O)N(C)CCn1cccn1 was 10.22%. With O=C(O)C(F)(F)F.O=C(O)C(F)(F)F.[H][C@]12CCN(CC3CCOCC3)[C@@]1([H])CCC(COCc1cccnc1)O2 (stereo partly drawn) the screen gave -31.38% & -36.84%. With CCCNC(=O)CCC(=O)N1CCC(c2n[nH]c(C3CC3)n2)CC1 the screen gave -17.76%.

Result for CCN1c2ccc(-c3cncn3CC(=O)NC(C)(C)C)cc2CC1C.Cl (stereo not drawn) was 11.31%. Cc1nn(C)c(C)c1C1COCCN1C(=O)CCc1ccccc1 (stereo not drawn) gave 5.254%. Result for CCNc1ncc(C(=O)NCc2csc(-c3cnccn3)n2)cn1 was 10.07%. COCC1CN(S(=O)(=O)c2ccccc2)Cc2ncnn2C1 (stereo not drawn) read -16.74%. For CC(c1ccc(S(N)(=O)=O)cc1)N(C)C(=O)c1ccccc1I (stereo not drawn) the result was -8.617%. CC(=O)N1CCCC1c1ccc(C(=O)N2CCOCC2)s1 (stereo not drawn) read -8.218%. For [H][C@@]12CS(=O)(=O)C[C@]1([H])N(C(=O)c1csc(C)n1)CCN2C(=O)N(C)C the result was 7.418%.

CS(=O)(=O)N1CCC(NCC2(N3CCOCC3)CCCCC2)CC1 read -1.13%. CS(=O)(=O)N[C@H]1CN(CCOCc2ccccc2)C[C@@H]1C1CC1 read 2.492%. Cc1c(OCC(=O)NCc2ccccc2Cl)c(=O)ccn1C gave -21.56%. CCc1ccc(CN2CCN(c3ncc(Cl)cn3)CC2)nc1 read 5.698%. CC(C)(C)OC(=O)N[C@@H]1C[C@@H](O)CN(C(=O)c2cccc(F)c2)C[C@H]1O read 12.06%. With COc1ccc(C)cc1C(C(=O)O)N1CCN(Cc2ccccn2)CC1 (stereo not drawn) the screen gave -0.4576%. Cc1noc(C)c1-c1ccc(C2CCCN2C(=O)c2cccnc2)nc1 (stereo not drawn) read -14.3%.

Result for CCc1ccc(CNC(=O)CCc2nnc(-c3ccc(C)s3)o2)nc1 was 23.51%. With CCCC1(CNCc2ncc[nH]2)CCC1 the screen gave -6.083%. Result for c1cnc(N2CCC(OCCN3CCCCC3)C2)nc1 (stereo not drawn) was 13.61%. Result for CCc1c(C)nn(C)c1NC(=O)N1CCCOC(Cn2cccn2)C1 (stereo not drawn) was -10.77%. For Cc1ccccc1CNC(=O)N1CCC(n2cncn2)CC1 the result was 19.87%. CCc1cc(N(C)CCc2noc(C)n2)nc(N2CCOCC2)n1 gave -14.09%. CNc1cc(C2CCCN2Cc2ccccc2C(=O)O)ccn1 (stereo not drawn) read -4.379%.

Result for CCc1noc(CCCC(=O)N2CCCC(c3ccn[nH]3)C2)n1 (stereo not drawn) was 8.7%. With O=C(O)C(F)(F)F.[H][C@]12C[C@@H](CN(C)C)N(C(C)=O)[C@@]1([H])CCN(C(=O)c1cnc(C)cn1)C2 the screen gave -17.44%. CC(c1cccc(-c2nccn2CCc2ccccn2)c1)N(C)C (stereo not drawn) gave 5.78%. COc1ncccc1CN1CCc2[nH]nc(C(=O)N3CCCC3C)c2C1.O=C(O)C(F)(F)F.O=C(O)C(F)(F)F (stereo not drawn) read -5.842%. O=C(COC1CCCC1)NC(C(=O)Nc1cc[nH]n1)c1ccccc1 (stereo not drawn) read 4.794%. For CCC(C)N(C)C(=O)Nc1ccc(N2CCSCC2)cc1C (stereo not drawn) the result was 3.769%.

Source: ChEMBL document CHEMBL3988442, “University of Dundee, Small-Polar-MMV Screening Library” (2021).